Data taken from paper PMC10483240.
Results are given in words; binding and its absence hold for the method and conditions named. In cells and extracts the contact can be indirect. Some entries that bind do so weakly or less than the wild type.

By UniProt entry, the sequences of proteins in these tests, tags left out.
UniProt P14873: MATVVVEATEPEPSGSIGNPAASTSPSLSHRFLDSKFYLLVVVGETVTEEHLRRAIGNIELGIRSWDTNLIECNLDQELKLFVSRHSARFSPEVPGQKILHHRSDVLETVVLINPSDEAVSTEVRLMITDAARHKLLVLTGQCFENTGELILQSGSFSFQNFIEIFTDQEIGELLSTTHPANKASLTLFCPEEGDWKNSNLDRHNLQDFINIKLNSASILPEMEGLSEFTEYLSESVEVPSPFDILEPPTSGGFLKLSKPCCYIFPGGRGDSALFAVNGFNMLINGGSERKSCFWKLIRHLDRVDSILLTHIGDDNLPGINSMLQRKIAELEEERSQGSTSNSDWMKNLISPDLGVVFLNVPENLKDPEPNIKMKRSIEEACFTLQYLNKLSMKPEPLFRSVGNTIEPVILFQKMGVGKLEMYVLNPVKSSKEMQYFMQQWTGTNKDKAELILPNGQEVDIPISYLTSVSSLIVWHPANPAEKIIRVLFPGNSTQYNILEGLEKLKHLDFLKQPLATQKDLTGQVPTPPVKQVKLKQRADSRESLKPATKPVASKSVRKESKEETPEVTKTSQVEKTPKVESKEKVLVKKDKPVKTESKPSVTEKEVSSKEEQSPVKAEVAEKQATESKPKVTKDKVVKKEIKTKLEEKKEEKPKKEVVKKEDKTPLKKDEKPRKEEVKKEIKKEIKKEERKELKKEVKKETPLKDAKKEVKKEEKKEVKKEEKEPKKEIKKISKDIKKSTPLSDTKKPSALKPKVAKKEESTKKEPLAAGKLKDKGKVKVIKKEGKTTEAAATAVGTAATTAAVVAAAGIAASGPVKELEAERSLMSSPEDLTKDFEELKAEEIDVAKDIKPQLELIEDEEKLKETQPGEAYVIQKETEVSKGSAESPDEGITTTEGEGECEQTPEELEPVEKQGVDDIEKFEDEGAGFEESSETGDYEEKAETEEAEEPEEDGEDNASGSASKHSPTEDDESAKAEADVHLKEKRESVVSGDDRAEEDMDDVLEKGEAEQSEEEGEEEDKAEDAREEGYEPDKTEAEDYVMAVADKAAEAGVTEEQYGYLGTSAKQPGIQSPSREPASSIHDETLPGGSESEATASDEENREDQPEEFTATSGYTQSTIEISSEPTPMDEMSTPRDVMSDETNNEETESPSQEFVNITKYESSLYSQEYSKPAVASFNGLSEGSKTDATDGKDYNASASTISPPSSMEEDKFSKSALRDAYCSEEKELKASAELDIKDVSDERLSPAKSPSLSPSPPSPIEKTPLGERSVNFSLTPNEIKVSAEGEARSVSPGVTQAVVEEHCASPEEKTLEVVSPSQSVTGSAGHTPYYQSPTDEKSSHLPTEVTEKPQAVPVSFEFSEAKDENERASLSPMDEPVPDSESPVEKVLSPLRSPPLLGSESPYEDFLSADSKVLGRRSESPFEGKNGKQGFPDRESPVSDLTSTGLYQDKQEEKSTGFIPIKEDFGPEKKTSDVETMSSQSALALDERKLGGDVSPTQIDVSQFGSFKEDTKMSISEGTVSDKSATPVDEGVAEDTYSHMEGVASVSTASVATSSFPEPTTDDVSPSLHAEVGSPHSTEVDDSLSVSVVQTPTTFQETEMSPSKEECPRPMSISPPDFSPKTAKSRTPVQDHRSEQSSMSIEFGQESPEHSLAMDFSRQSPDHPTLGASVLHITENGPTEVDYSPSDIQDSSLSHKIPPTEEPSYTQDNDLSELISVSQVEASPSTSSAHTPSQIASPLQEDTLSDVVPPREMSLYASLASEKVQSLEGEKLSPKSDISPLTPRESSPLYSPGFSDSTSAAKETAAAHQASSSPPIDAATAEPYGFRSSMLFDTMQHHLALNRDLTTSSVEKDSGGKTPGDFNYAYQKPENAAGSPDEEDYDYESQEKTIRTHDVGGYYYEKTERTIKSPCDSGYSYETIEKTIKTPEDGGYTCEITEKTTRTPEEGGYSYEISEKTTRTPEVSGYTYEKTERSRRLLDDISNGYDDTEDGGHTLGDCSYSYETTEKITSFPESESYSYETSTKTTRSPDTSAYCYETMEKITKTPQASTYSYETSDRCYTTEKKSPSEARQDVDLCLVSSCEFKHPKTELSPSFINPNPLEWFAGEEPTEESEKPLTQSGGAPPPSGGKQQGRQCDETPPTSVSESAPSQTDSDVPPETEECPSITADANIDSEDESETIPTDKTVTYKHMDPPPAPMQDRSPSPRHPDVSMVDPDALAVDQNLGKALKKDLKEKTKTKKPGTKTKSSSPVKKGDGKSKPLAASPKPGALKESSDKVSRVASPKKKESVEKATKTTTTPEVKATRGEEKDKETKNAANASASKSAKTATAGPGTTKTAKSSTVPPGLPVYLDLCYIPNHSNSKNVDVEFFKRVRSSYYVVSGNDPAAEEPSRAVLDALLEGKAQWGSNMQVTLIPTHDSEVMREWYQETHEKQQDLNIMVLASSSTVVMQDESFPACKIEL

Assays:
Experiment in all cases: co-IP; antibody against the partner (anti-STX7, anti-LYZL4, anti-MAP1B, anti-Cathepsin Z, anti-AP1M1, anti-AP2B1, anti-AP3D1; rabbit or mouse control) on protein G beads; mouse testis homogenate in 125 mM KCl, 10 mM EDTA, 20 mM HEPES pH 7.2, supernatant with 1% NP-40 alternative; Western blot for inceptor
[1] = target: T1, Lysozyme-like 4 (LYZL4) (mouse (endogenous in testis)) (UniProt Q9D925)
T1 sequence: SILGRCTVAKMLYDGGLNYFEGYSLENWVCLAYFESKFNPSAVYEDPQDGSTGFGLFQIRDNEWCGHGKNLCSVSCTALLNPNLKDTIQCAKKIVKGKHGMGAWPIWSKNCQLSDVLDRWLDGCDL

[2] = target: microtubule-associated protein 1B (MAP1B) (mouse (endogenous in testis)) (UniProt P14873)
[3] = target: T2, syntaxin 7 (STX7) (mouse (endogenous in testis)) (UniProt O70439)
T2 sequence: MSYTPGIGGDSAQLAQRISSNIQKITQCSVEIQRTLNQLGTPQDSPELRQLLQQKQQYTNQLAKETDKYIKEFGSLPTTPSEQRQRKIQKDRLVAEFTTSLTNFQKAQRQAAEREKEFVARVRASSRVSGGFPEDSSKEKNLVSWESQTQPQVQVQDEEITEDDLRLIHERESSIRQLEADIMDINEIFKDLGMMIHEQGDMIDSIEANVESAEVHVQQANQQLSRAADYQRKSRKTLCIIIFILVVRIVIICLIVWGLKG

binding [1]: binds | binding [2]: binds | binding [3]: binds
B1: insulin inhibitory receptor (inceptor) (receptor, UniProt A2AFS3 36-1009)
chain: FQVTLGTGPELHACKESEYHFEYTACDSTGSRWRVAVPHSPGLCTSLPDPVKGTECSFSCNAGEFLDMKDQSCKPCAEGRYSLGTGIRFDEWDELPHGFASLSANLEVDDSISESTENCTSSKWVPRGDYIASNTDECTATLMYAVNLKQSGTVNFEYYYPDSSIIFEFFVQNDQCQPSADDSRWMKTTEKGWVELNRGNNVLYWRTTAFSVWSKVSKPVLVRNIAITGVAYTSECFPCKPGTYAAKQGSPFCKLCPANYYSNKGETSCHPCDADKYSEKGSSTCKVRPACTDKDYFYTHTACDAQGETQLMYKWAIPKICGEDLEGAVKLPASGVKTRCPPCNPGFFKTDNSTCEPCPYGSYSNGSDCTHCPAGTEPAVGFEYKWWNTLPSNMETTVLSGINFEYKGLTGWEVAGDHIYTAVGASDNDFMILTLVVPGFRPPQSVVADTENKEVARITFVFETICSVNCELYFMVGMNSRTNTPVETWKGTKGKQSYTYTIEENATVSFTWAFQRTTLHETGRKYTNDVAKIYSINVTNVMGGVASYCRPCALEASDLGSSCTSCPAGHYINRDSGTCHLCPSNTILKAHQPYGAQACVPCGPGTKNNKIHSLCYNDCTFSRNTPSRIFNYNFSALAGTVSLAGVPSFTSKGLKYFHHFTLSLCGNQGKKMAVCTDNVTDLRIPDGEAGFSKSVTAYVCQVVIIPSEVMGYKAGVSSQPVSLADRLVGVSTDMTLEGIVSPVELFHPETSGIPDIVFFFRSNDVTQSCSSGRSTTIRLRCNPMKAAPGTLRLPSMCSDGTCDGCNFHFLWESVAACPLCSASDYHTFVSSCVAGIQKTTYMWREPKLCSGGISLPEQRVTICKTIDFWLKVGISAGTCTAILLTVLTCYFWKKNQKLEYKYSKLVMNATLKDCDLPAADSCAIMEGEDVEDDFIFTSKKSLFGKIKSFTSKRTPDGFDSVPLKTSSGGPDMDM
